For the experiment, the target named is T1, FLAG-mANGPTL8 (angiopoietin-like protein 8) (mouse) (UniProt Q8R1L8).
T1 sequence: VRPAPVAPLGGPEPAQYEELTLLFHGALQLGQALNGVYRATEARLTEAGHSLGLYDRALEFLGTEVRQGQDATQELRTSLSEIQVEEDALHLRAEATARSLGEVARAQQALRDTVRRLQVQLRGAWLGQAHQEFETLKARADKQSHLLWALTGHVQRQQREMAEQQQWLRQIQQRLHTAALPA
The experiment can be described thus: co-IP; FLAG-mANGPTL8 and Pe-CFP-PIRB transfected into 293-T cells; lysed after 24 h in IP buffer (50 mM Tris-HCl pH 7.5, 150 mM NaCl, 1% NP-40, 0.1% SDS-Na, proteinase inhibitor); anti-FLAG-M2 agarose beads overnight at 4 °C; western blot; the legend also names an IP with a LILRB3 antibody.

No constants are given. Whether binding was seen depends on the method and setting. Binding seen in cells or lysates may run through a third protein. Some entries that bind do so weakly or less than the wild type. Sequences can lack the tags named with a protein.

B1: Pe-CFP-PIRB (paired immunoglobulin-like receptor B) (receptor, UniProt P97484 25-841)
chain: SLPKPILRVQPDSVVSRRTKVTFLCEETIGANEYRLYKDGKLYKTVTKNKQKPENKAEFSFSNVDLSNAGQYRCSYSTQYKSSGYSDLLELVVTGHYWTPSLLAQASPVVTSGGYVTLQCESWHNDHKFILTVEGPQKLSWTQDSQYNYSTRKYHALFSVGPVTPNQRWICRCYSYDRNRPYVWSPPSESVELLVSGNLQKPTIKAEPGSVITSKRAMTIWCQGNLDAEVYFLHNEKSQKTQSTQTLQEPGNKGKFFIPSVTLQHAGQYRCYCYGSAGWSQPSDTLELVVTGIYEYYEPRLSVLPSPVVTAGGNMTLHCASDFPYDKFILTKEDKKFGNSLDTEHISSSGQYRALFIIGPTTPTHTGAFRCYGYYKNAPQLWSVPSALQQILISGLSKKPSLLTHQGHILDPGMTLTLQCFSDINYDRFALHKVGGADIMQHSSQQTDTGFSVANFTLGYVSSSTGGQYRCYGAHNLSSEWSASSEPLDILITGQLPLTPSLSVQPNHTVHSGETVSLLCWSMDSVDTFILSKEGSAQQPLRLKSKSHDQQSQAEFSMSAVTSHLSGTYRCYGAQDSSFYLLSSASAPVELTVSGPIETSTPPPTMSMPLGGLHMYLKALIGVSVAFILFLFIFIFILLRRRHRGKFRKDVQKEKDLQLSSGAEEPITRKGELQKRPNPAAATQEESLYASVEDMQTEDGVELNSWTPPEEDPQGETYAQVKPSRLRKAGHVSPSVMSREQLNTEYEQAEEGQGANNQAAESGESQDVTYAQLCSRTLRQGAAASPLSQAGEAPEEPSVYATLAAARPEAVPKDMEQ
For the molecule B1, the binding result is “binds”.

The record behind these values is PMC9293964.
